Experimental data from the supplement of paper PMC3334620.
Over roughly 33,000 sequences, “E-score (-0.5 to 0.5)” has its median near -0.0059; the highest 2% begin near 0.26. The list shows a part of the results.

Target: T1, Cin5 (UniProt P40917)
T1 sequence: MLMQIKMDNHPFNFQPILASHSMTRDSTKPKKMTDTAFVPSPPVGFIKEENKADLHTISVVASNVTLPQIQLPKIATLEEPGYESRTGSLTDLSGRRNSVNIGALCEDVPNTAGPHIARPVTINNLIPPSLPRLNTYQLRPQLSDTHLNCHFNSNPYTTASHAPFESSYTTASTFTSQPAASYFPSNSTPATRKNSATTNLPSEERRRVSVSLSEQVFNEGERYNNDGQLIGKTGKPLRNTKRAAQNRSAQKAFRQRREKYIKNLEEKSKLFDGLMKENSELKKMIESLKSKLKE
Test: PBM E-score (8-mer binding enrichment) (E-score (-0.5 to 0.5)); higher = stronger / more preferred TF binding
Conditions: protein concentration: 100 nM; construct: GST-full length
How it was run: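 Universal all-10-mer Agilent arrays, double-stranded by primer extension on fresh or once-stripped slides, were probed with about 100-200 nM GST-tagged yeast transcription factors made by PURExpress. Fluorescent anti-GST detected bound protein, and masliner normalised the scans. E-scores from the Universal PBM Analysis Suite were given to each ungapped eight-base word pooled with its reverse complement.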

Row | Sequence | PBM E-score
1 | CTTATAGC | -0.0169
2 | GCAGTCGC | -0.165
3 | ATAGGGGA | 0.019
4 | GGCCGTGA | 0.0348
5 | AGTTTGAG | 0.135
6 | AGTATGAA | 0.211
7 | AGACTGCC | -0.0602
8 | CACCACCG | -0.253
9 | ACTAAGCT | 0.159
10 | AGAAGCGG | -0.127
11 | CCGTGGGC | -0.187
12 | AGCCAGTC | -0.182
13 | CTACCAGC | -0.0681
14 | ATGACGAA | 0.187
15 | ACTCGGAC | -0.0214
16 | CAGAGGGC | -0.14
17 | ACTACAGG | 0.0972
18 | GCACGACA | -0.109
19 | TCGAGAGA | -0.098
20 | AAAAGTCG | 0.0461
21 | ACGGAATC | 0.13
22 | GATTCTAC | 0.0577

Rewritten with each value named: entries from further up.
GCAGTCGC
  PBM E-score = -0.165
ATAGGGGA
  PBM E-score = 0.019

(list continues)

Row | Sequence | PBM E-score
23 | GTGATTAA | 0.23
24 | CAATCTCA | 0.0273
25 | AAACCAGT | -0.102
26 | CGGCCGCA | -0.143
27 | AACTCCAT | 0.0158
28 | AAACGCGT | -0.0191
29 | GCGGTTCC | -0.0768
30 | GCAGCCAC | -0.103
31 | ACCCTGTG | -0.0365
32 | CCCGGTTA | -0.276
33 | ATACTCCA | 0.122
34 | CGAACTCA | -0.0904
35 | AGTTTGCG | 0.0575
36 | AATATTTC | 0.18
37 | TAGGAGCA | -0.227
38 | CTGCCCTA | -0.0663
39 | AAGAATGG | 0.00852
40 | CGATCGTA | 0.0611
41 | GATGTCGA | -0.035
42 | CTAAGCCC | -0.0799
43 | AAGGTAAT | 0.174
44 | CTACCTAG | -0.119

Row | Sequence | PBM E-score
45 | CGAGGGAC | -0.353
46 | AACTGGCG | 0.082
47 | CTACAAGC | -0.131
48 | CTCGTTCC | -0.0186
49 | GGTAGCGA | -0.0308
50 | ACAAAATG | 0.187
51 | ATACGCTG | 0.0129
52 | ATTCTATA | 0.116
53 | TCCTATCA | -0.0125
54 | CATGGGCG | -0.0472
55 | GGACGAGA | -0.0139
56 | CTAAGGTC | 0.0393
57 | GCCTGAGA | -0.171
58 | AAGAACTC | 0.026
59 | GCAAGCAC | -0.204
60 | TATACACA | 0.118
61 | ATGTCATG | 0.0742
62 | CGAGACCA | 0.0615
63 | CGTCACAA | -0.0941
64 | GATACCGC | 0.0689
65 | ATCATGTA | 0.0588
66 | ATTCGTAA | 0.304

Reformatted in markdown: entries from further up

| Row | Sequence | PBM E-score |
| --- | --- | --- |
| 14 | ATGACGAA | 0.187 |
| 15 | ACTCGGAC | -0.0214 |
| 16 | CAGAGGGC | -0.14 |
| 17 | ACTACAGG | 0.0972 |

Next part

Row | Sequence | PBM E-score
67 | CAGTTAGA | 0.0421
68 | ATGATCGC | 0.0101
69 | CCCCTCTC | -0.318
70 | AGCGGGAA | 0.0493
71 | ATGACACA | 0.115
72 | AATTGATA | 0.23
73 | CTTCCTCA | 0.0942
74 | AGATCCTG | -0.197
75 | CAGTACCA | -0.0542
76 | GTTACGCA | -0.0348
77 | CCGCATCA | -0.0882
78 | CAGTGGAA | -0.124
79 | CCTTAACC | -0.22
80 | CGGATACA | 0.166
81 | AATTGACG | 0.0316
82 | CATGGCCA | -0.2
83 | ACGATTAC | 0.295
84 | GATTAGGC | 0.0587
85 | CCAGAGCA | -0.046
86 | ATTCAAAA | 0.232
